Results from patent EP2990415B1, “Cyclic beta defensins analogs for the treatment of infections” (Ceinge Biotecnologie Avanzate S.C. a R.L., priority 2014, dated 2016).
Part of at least one peptide drawing is inferred or uncertain, most often the ends. Bridge positions count the residues as written; N and C are the ends. Peptide text beside a SMILES is read from it.

Columns and labels:
Assay type in all cases: cell-based
[1] = system: Escherichia coli ATCC 25922
Description: (§1) A CFU assay of the antibacterial activity of the peptides of the present invention against Pseudomonas aeruginosa ATCC (American Type Culture Collection, Manassas, VA, USA) 27853, Enterococcus faecalis ATCC 29212 and Escherichia coli ATCC 25922 was performed as follows. The strains were grown in aerobic conditions in tryptic soy broth (Difco Laboratories, Detroit, MI, USA) at 37°C and incubated in the presence of hBDs for 2 h at 37°C. We used two concentrations of peptides, i.e., 2.5 µM and 12.5 µM. For salt-dependence assay, 0, 50, 100 and 200 mM NaCl were included in the incubation buffer as previously described (1). Each assay was performed in triplicate. Bactericidal activity (mean and SD of three assays) is expressed as the ratio between colonies counted and the number of colonies on a control plate. The minimal inhibitory concentration (MIC) of the peptide SEQ ID No. 25 was determined with a modified version of the microbroth dilution assay of the National Committee for Clinical Laboratory Standards using a final inoculum of 10^5 CFU/ml. The following peptide concentrations were used: 100.0, 50.0, 25.0, 12.5, 6.25, 3.12 and 1.56 µM.

[2] = system: Pseudomonas aeruginosa ATCC 27853
Description: as §1

[3] = system: Enterococcus faecalis ATCC 29212
Description: as §1

[4] = 12.5 µM peptide, highest salt concentrations (200 mM)

CC[C@H](C)[C@@H]1NC(=O)[C@H](CCCCN)NC(=O)[C@H]([C@@H](C)O)NC(=O)[C@H](Cc2ccccc2)NC(=O)[C@H]([C@@H](C)CC)NC(=O)[C@@H]2CCCN2C(=O)[C@@H](N)CSSC[C@@H](C(=O)NCC(=O)NCC(=O)N[C@@H](CCCNC(=N)N)C(=O)N[C@@H](CCCNC(=N)N)C(=O)N[C@@H](CCCCN)C(=O)N[C@@H](CCCCN)C(N)=O)NC(=O)[C@H]([C@@H](C)O)NC(=O)CNC(=O)[C@H](CCC(N)=O)NC1=O [SEQ ID No. 25] (H-CPIFTKIQGTCGGRRKK-NH2; disulfide 1-11)
antibacterial effect ([1]; 12.5 µM): strong antibacterial effect
antibacterial activity compared to hBD3 [1, 4]: more effective than hBD3
antibacterial effect ([2]; 12.5 µM): strong antibacterial effect
antibacterial activity compared to hBD3 ([2]; 12.5 µM peptide, 200 mM NaCl): more active
antibacterial effect ([3]; 12.5 µM): strong antibacterial effect
antibacterial activity compared to hBD3 [3, 4]: more effective than hBD3
